# Values quoted from earlier work in patent US20050187243A1, “Montelukast free acid polymorphs” (priority 2004, published 2005).
# Where a name gives a salt, the structure may show the parent alone. For at least one compound, name, drawing or mass did not settle the structure.
# Settings: solid powder
smiles,measurement,value
"CC(C)(O)c1ccccc1CC[C@@H](SCC1(CC(=O)O)CC1)c1cccc(/C=C/c2ccc3ccc(Cl)cc3n2)c1 [Montelukast sodium, [R-(E)]-1-[[[1-[3-[2-(7-chloro-2-quinolinyl)ethenyl]phenyl]-3-[2-(1-hydroxy-1-methylethyl)phenyl]propyl]thio]methyl]cyclopropaneacetic acid, monosodium salt]",hygroscopicity of the powder,hygroscopic
